{
  "source": "paper PMC5144010",
  "binders": {"B1": {"name": "AIM expressed with KIM-1-FLAG in HEK293T cells (protein, UniProt Q9QWK4 22-352)", "chain": "ESPTKVQLVGGAHRCEGRVEVEHNGQWGTVCDDGWDRRDVAVVCRELNCGAVIQTPRGASYQPPASEQRVLIQGVDCNGTEDTLAQCELNYDVFDCSHEEDAGAQCENPDSDLLFIPEDVRLVDGPGHCQGRVEVLHQSQWSTVCKAGWNLQVSKVVCRQLGCGRALLTYGSCNKNTQGKGPIWMGKMSCSGQEANLRSCLLSRLENNCTHGEDTWMECEDPFELKLVGGDTPCSGRLEVLHKGSWGSVCDDNWGEKEDQVVCKQLGCGKSLHPSPKTRKIYGPGAGRIWLDDVNCSGKEQSLEFCRHRLWGYHDCTHKEDVEVICTDFDV"}},
  "molecular_target": "T1, FLAG-tagged kidney injury molecule 1 (KIM-1) (UniProt Q5QNS5)",
  "T1 sequence": "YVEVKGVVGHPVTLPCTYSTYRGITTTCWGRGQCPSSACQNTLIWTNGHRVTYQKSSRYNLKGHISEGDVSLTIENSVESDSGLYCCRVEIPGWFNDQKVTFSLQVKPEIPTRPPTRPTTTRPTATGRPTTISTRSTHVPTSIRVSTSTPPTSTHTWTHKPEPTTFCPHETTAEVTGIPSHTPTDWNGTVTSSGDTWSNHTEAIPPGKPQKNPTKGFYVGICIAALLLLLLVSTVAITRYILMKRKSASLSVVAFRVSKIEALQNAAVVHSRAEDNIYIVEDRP",
  "assay": "co-IP; AIM or sAIM expression vector co-transfected with FLAG-tagged KIM-1 expression vector in HEK293T cells; immunoprecipitation",
  "note": "No constants are given. Whether binding was seen depends on the method and setting. In cells and extracts the contact can be indirect. Some results given as binding are weak or reduced against the parent protein; the word gives no strength. Where a sequence is shown, tags or fusion partners need not be part of it.",
  "data": [
    {"binder": "B1", "values": [
      {"measurement": "binding", "result": "binds"}
    ]}
  ]
}
